Test: general procedure: Fmoc solid-phase peptide synthesis; Rink-Amido-PEGA resin; HCTU.HOBT/NMP, DIPEA (first residue: MSNT, N-methylimidazole)
Conditions: whole synthesis, scale 100 μmol

30-residue peptide wherein 26Lys of BIM51077 was substituted with Cys
isolated mass: 12 mg

Reference: patent US8765669B2 (Glytech, Inc., priority 2008, dated 2014)
